Reference: doi:10.1101/2023.03.15.532838
Where two headings read alike, the source gives them in different places. Results are given in words; binding and its absence hold for the method and conditions named. Binding seen in cells or lysates may run through a third protein. Some results given as binding are weak or reduced against the parent protein; the word gives no strength. For some of these results: Where a sequence is shown, tags or fusion partners need not be part of it. Values belong to the substance of their own block, whether it stands above or below them.

Chains of the proteins cited; added tags and fusions are not shown.
UniProt Q5SQI0: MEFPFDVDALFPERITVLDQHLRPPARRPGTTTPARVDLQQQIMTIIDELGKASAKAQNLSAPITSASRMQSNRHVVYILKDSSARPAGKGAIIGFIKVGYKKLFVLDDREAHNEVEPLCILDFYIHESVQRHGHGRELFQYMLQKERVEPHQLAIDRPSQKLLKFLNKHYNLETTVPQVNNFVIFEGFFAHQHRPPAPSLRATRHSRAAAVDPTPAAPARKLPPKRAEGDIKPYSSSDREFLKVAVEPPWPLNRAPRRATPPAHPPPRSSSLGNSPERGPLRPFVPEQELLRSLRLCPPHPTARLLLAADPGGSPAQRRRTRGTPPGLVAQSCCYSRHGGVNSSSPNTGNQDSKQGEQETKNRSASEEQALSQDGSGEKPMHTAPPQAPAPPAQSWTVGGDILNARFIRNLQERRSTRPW
UniProt O60282: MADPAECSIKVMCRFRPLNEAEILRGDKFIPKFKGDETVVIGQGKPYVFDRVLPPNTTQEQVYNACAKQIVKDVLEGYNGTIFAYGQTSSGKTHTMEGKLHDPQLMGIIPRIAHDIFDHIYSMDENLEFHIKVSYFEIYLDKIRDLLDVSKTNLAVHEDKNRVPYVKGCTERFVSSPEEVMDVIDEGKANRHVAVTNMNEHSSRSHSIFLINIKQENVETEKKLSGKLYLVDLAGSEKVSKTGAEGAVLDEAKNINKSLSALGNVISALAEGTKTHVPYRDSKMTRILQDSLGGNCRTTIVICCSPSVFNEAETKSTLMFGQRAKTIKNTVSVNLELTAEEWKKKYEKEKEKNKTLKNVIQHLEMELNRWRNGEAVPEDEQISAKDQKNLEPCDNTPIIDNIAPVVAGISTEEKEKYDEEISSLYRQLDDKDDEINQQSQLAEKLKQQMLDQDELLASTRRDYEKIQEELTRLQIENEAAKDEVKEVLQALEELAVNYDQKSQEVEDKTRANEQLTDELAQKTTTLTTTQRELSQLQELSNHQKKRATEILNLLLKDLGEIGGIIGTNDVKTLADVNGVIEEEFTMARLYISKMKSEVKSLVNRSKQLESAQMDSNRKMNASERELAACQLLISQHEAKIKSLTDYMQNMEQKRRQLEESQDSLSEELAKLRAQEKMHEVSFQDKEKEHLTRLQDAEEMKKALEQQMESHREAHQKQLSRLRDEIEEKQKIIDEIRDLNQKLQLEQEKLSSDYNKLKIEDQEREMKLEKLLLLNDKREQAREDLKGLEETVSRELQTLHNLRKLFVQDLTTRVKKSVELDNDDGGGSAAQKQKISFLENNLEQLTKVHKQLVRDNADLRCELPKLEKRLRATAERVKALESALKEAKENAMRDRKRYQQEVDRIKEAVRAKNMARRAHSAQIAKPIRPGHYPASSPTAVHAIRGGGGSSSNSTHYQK
UniProt Q8K341: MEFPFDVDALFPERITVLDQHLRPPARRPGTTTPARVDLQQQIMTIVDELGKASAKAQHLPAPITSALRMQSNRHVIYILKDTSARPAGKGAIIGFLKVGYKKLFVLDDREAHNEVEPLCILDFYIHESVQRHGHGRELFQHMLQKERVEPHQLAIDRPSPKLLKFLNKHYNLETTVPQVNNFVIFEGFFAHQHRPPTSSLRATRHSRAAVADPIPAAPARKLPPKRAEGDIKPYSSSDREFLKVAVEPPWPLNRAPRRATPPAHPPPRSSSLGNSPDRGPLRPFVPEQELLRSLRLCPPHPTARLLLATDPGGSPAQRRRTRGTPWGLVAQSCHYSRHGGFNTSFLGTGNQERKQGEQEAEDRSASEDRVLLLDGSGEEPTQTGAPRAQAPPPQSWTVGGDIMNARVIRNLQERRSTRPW

Tests used:
Myc-MFN2 WT = target: T1, Myc-MFN2 WT (UniProt O95140); experiment: co-IP
T1 sequence: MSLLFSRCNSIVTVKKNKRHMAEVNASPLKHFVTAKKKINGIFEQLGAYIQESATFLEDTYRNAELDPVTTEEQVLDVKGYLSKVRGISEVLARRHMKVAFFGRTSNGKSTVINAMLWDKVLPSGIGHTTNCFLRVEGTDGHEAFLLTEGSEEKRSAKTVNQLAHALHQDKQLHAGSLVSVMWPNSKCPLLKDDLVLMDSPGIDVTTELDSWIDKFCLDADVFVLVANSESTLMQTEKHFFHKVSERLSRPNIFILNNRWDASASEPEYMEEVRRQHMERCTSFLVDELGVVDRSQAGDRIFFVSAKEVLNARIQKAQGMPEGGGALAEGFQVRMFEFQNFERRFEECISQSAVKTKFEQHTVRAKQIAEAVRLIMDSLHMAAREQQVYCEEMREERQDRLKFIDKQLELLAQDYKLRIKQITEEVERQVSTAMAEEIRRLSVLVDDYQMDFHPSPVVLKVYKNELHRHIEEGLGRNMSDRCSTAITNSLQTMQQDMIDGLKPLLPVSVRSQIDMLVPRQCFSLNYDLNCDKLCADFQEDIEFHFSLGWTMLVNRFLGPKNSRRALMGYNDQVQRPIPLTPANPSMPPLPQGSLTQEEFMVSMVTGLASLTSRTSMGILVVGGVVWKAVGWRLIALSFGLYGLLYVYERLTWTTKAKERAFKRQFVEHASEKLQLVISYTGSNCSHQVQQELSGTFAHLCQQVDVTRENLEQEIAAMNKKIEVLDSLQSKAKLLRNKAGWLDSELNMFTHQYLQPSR

Flag-ATAT1 WT [1] = target: Flag-ATAT1 WT (UniProt Q5SQI0); experiment: co-IP
Flag-ATAT1 WT [2] = target: Flag-ATAT1 WT (UniProt Q5SQI0); experiment: co-IP; remark: listed apart in the source
[3] = target: T2, Mitofusin-2 (MFN2), endogenous in WT MEFs (mouse (endogenous in MEFs)) (UniProt Q80U63); experiment: proximity ligation
T2 sequence: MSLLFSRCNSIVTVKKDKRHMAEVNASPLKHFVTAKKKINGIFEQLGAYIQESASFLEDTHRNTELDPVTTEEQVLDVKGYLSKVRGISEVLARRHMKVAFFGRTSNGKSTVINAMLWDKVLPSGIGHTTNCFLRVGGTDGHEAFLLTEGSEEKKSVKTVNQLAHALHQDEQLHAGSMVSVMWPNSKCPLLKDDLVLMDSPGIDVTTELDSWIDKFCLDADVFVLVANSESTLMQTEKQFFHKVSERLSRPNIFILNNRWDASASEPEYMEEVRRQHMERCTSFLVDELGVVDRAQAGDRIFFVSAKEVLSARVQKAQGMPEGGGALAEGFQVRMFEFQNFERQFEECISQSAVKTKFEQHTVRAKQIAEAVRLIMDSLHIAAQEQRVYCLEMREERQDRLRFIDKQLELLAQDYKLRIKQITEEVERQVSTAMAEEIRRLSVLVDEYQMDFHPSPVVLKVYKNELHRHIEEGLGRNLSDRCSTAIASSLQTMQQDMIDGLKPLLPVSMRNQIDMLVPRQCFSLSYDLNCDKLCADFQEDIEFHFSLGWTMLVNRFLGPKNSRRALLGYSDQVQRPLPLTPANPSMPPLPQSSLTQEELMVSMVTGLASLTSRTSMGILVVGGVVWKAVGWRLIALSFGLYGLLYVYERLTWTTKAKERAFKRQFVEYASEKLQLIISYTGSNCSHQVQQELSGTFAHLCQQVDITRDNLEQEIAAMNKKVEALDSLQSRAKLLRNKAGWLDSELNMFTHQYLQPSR

- binding (Myc-MFN2 WT): binds
Substance: ATAT1, endogenous in HEK293T cells (from UniProt Q5SQI0 1-421) (enzyme)

- binding (Flag-ATAT1 WT [1]): binds
- binding (Flag-ATAT1 WT [2]): binds
Substance: Kinesin heavy chain (Kif5c), endogenous in HEK293T cells (from UniProt O60282 1-957)

- binding [3]: binds
Substance: α-tubulin acetyltransferase 1 (ATAT1), endogenous in WT MEFs (from UniProt Q8K341 1-421) (enzyme)
